Measured values reported in PMC2789240, “Comparative structural, kinetic and inhibitor studies of Trypanosoma brucei trypanothione reductase with T. cruzi^” (Molecular and Biochemical Parasitology, 2010).
These are yes or no findings as the source states them, for the method shown. Some binding calls cover weakened binding; strength is not graded here.

Protein sequences, listed by entry. Tags and fused reporters are not part of them.
UniProt P39051: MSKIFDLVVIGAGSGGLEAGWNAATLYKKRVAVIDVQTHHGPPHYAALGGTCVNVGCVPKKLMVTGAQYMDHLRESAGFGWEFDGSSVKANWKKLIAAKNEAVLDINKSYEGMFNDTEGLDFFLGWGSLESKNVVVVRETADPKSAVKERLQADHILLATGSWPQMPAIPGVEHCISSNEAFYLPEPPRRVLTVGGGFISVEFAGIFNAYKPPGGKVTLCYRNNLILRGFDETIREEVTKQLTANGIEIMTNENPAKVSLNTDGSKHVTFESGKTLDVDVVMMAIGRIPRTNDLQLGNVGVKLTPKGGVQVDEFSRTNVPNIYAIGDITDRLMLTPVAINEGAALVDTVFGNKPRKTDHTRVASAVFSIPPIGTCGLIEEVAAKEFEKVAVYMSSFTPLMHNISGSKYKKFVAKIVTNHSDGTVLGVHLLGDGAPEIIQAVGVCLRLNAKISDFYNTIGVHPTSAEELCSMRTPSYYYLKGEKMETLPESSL

Molecular target: Trypanosoma brucei brucei trypanothione reductase (T. b. brucei) (UniProt P39051)
Experiment: crystal structure; hanging drop, 20 °C, 0.1 M bis-Tris propane pH 8.0, 5% PEG 400, 2 M ammonium sulphate; 2.3 Å; two molecules per asymmetric unit; both purified

- binding: binds
Substance: Trypanosoma brucei brucei trypanothione reductase (from UniProt P39051 1-492) (enzyme)
